Common to all, as to test: co-IP; confirmatory IPs from lysates of HEK293 cells transfected with CUL7, V5-OBSL1 or CCDC8, with antibodies to CUL7, V5 or CCDC8; no antibody IP as negative control; immunoblot of endogenous partners
Background: Immunoblotting shows a protein as a band on a membrane.

Chains of the proteins cited; added tags and fusions are not shown.
UniProt Q14999: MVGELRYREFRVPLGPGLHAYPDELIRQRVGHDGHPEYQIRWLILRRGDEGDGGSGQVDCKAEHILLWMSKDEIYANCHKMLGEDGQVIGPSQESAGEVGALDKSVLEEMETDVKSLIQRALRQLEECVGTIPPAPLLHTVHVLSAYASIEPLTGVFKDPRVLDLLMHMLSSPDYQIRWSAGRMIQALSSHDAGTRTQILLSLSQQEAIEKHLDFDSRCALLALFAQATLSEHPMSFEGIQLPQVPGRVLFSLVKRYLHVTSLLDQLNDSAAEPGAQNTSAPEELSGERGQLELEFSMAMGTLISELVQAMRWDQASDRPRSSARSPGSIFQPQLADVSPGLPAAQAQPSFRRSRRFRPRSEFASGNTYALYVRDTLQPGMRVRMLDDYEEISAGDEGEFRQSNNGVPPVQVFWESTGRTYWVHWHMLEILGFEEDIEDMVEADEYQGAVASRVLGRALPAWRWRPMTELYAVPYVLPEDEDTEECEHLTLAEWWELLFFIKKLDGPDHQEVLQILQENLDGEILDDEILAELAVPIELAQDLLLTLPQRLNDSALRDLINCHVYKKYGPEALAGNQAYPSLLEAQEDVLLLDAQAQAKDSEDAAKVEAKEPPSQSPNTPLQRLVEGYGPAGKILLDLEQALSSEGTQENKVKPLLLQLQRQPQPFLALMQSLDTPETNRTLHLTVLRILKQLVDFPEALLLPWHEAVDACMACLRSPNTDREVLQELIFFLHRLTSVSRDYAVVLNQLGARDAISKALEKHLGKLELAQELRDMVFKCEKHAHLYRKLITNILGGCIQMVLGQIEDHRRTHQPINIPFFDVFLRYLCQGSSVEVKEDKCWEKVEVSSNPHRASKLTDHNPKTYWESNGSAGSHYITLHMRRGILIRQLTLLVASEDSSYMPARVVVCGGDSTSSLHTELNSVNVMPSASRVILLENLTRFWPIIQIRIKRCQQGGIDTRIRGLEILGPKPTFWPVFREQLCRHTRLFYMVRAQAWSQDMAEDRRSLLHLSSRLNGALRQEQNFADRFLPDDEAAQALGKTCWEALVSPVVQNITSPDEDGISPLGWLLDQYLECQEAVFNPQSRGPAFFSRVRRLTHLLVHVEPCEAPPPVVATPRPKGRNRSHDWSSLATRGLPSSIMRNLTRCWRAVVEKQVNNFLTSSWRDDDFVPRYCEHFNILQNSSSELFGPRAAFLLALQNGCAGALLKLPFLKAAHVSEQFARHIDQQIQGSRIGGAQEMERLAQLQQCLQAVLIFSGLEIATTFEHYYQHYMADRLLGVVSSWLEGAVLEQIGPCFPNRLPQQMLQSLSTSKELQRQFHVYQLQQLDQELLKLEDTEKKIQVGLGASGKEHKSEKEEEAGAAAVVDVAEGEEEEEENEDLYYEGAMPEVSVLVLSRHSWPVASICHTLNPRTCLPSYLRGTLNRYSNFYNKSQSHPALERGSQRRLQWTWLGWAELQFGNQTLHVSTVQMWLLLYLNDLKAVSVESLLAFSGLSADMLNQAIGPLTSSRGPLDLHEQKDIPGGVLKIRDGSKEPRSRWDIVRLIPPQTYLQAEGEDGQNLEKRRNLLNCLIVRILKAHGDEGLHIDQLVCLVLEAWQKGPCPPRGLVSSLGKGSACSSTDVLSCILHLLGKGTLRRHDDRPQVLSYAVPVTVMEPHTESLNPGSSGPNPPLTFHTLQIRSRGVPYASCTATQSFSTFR
UniProt O75147: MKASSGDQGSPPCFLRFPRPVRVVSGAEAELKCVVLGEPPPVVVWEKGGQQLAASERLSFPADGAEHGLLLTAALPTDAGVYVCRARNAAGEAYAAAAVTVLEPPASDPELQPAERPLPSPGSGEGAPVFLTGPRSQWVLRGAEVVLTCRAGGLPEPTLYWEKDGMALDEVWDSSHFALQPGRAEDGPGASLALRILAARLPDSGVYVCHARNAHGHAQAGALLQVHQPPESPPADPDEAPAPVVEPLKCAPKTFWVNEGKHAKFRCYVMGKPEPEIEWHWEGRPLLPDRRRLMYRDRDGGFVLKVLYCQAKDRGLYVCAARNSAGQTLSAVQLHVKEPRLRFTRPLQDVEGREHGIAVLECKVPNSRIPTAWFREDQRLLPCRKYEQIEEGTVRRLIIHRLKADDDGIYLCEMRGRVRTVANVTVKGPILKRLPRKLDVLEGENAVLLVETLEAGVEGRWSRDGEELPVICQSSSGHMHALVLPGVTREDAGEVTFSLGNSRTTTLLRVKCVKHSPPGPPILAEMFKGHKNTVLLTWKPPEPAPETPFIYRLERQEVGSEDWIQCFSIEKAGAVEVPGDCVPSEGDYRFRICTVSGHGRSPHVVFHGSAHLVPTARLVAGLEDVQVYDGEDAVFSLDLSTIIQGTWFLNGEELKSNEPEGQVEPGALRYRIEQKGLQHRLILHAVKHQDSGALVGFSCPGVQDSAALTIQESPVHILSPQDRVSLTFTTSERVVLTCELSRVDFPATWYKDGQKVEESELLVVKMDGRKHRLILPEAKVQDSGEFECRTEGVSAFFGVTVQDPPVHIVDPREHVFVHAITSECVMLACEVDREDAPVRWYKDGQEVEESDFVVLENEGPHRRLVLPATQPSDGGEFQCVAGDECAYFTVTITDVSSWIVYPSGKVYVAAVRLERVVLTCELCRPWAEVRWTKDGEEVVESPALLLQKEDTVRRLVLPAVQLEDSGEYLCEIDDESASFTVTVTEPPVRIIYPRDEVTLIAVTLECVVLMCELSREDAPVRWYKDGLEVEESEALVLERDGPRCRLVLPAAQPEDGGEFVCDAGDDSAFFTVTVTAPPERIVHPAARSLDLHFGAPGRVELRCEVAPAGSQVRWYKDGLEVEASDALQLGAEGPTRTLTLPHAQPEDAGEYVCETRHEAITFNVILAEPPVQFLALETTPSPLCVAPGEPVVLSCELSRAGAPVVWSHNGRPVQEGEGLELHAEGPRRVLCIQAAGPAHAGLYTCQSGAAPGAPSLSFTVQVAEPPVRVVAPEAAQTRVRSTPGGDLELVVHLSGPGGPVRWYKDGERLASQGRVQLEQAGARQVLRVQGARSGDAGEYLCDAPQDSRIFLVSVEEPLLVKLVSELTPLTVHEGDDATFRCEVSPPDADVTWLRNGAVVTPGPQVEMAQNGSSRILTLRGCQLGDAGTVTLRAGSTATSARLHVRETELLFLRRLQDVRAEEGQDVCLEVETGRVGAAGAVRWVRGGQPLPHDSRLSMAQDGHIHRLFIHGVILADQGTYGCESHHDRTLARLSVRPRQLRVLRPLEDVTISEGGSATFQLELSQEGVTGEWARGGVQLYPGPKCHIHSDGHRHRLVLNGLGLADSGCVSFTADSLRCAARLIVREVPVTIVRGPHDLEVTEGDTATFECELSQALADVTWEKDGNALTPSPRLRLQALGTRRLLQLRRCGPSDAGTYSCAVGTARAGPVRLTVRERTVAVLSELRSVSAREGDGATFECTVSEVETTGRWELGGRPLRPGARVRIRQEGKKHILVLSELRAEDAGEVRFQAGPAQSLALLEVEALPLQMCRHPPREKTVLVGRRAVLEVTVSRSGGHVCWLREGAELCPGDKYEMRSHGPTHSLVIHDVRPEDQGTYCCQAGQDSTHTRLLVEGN
UniProt P13010: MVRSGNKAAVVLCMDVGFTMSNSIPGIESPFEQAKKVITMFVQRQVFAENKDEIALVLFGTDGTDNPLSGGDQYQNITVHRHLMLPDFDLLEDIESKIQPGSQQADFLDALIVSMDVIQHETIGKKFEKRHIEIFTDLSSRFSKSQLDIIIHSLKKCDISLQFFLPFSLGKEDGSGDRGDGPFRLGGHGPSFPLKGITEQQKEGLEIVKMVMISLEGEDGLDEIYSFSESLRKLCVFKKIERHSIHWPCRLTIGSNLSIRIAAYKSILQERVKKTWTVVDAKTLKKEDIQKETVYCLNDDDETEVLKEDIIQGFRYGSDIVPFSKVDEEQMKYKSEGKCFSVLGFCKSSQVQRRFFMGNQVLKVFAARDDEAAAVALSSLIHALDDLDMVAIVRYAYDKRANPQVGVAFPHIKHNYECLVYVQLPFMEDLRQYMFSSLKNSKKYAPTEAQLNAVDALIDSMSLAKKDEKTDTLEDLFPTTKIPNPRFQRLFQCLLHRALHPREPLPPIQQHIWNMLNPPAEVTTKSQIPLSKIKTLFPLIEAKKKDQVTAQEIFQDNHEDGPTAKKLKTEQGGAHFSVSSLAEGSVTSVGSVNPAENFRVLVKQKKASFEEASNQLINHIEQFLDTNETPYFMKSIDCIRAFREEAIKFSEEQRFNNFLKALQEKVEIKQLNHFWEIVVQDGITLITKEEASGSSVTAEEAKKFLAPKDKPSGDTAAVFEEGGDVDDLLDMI

One test has as its target T1, CCDC8 (UniProt Q9H0W5).
T1 sequence: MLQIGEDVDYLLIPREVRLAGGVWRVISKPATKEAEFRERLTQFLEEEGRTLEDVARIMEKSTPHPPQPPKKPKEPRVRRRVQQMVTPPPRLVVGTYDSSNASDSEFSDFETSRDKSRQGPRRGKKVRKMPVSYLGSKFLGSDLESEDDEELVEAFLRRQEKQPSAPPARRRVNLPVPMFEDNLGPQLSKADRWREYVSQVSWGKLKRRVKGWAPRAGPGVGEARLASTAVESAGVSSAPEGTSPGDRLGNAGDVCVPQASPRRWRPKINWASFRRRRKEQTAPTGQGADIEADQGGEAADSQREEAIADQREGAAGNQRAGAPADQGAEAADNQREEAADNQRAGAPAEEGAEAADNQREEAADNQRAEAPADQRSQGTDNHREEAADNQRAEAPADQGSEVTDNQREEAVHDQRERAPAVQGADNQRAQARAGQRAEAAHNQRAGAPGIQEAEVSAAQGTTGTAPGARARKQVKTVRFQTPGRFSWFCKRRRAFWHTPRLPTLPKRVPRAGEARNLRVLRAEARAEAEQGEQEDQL

A further test addresses CUL7 (UniProt Q14999).
A further test addresses V5-OBSL1 (UniProt O75147).

No constants are given. Whether binding was seen depends on the method and setting. In cells and extracts the contact can be indirect. Some binding calls cover weakened binding; strength is not graded here.

Three molecules from paper PMC4045235 can be followed below.

As to XRCC5 (from UniProt P13010 1-732), the binding entry with CCDC8, with CUL7 and with V5-OBSL1 was “binds” each time.

In the case of TP53 (from UniProt P04637 1-393), the binding entry in the test with CCDC8 and with V5-OBSL1 was “binds” in each case.

B1: CCT2 (protein, UniProt P78371 1-535)
chain: MASLSLAPVNIFKAGADEERAETARLTSFIGAIAIGDLVKSTLGPKGMDKILLSSGRDASLMVTNDGATILKNIGVDNPAAKVLVDMSRVQDDEVGDGTTSVTVLAAELLREAESLIAKKIHPQTIIAGWREATKAAREALLSSAVDHGSDEVKFRQDLMNIAGTTLSSKLLTHHKDHFTKLAVEAVLRLKGSGNLEAIHIIKKLGGSLADSYLDEGFLLDKKIGVNQPKRIENAKILIANTGMDTDKIKIFGSRVRVDSTAKVAEIEHAEKEKMKEKVERILKHGINCFINRQLIYNYPEQLFGAAGVMAIEHADFAGVERLALVTGGEIASTFDHPELVKLGSCKLIEEVMIGEDKLIHFSGVALGEACTIVLRGATQQILDEAERSLHDALCVLAQTVKDSRTVYGGGCSEMLMAHAVTQLANRTPGKEAVAMESYAKALRMLPTIIADNAGYDSADLVAQLRAAHSEGNTTAGLDMREGTIGDMAILGITESFQVKRQVLLSAAEAAEVILRVDNIIKAAPRKRVPDHHPC
For B1, the binding result in the test with CCDC8, in the test with CUL7 and with V5-OBSL1 was “binds” throughout.
